No constants are given. Whether binding was seen depends on the method and setting. Some entries that bind do so weakly or less than the wild type.
Legend:
[1] = target: Smad3 (human (endogenous in Jurkat T, THP-1, MCF-7, HaCaT)) (UniProt P84022); assay: ELISA; plate coated with mouse anti-Smad3 antibody (1:500) as capture, blocked with 1% BSA; cell lysates (Jurkat T, THP-1, MCF-7, HaCaT; with or without 2 ng/ml TGF-β for 24 h) applied for 2 h; washed with TBST; Smad4 or TRIM33 bound to Smad3 detected with rabbit antibodies and HRP secondary antibody, absorbance at 492 nm
[2] = target: Smad3 (human (endogenous in Jurkat T, THP-1, MCF-7, HaCaT)), P84022; assay: as above; settings: remark: other sources report otherwise

Sequences of proteins named here, by UniProt entry; tags and fusion partners are left off.
UniProt P84022: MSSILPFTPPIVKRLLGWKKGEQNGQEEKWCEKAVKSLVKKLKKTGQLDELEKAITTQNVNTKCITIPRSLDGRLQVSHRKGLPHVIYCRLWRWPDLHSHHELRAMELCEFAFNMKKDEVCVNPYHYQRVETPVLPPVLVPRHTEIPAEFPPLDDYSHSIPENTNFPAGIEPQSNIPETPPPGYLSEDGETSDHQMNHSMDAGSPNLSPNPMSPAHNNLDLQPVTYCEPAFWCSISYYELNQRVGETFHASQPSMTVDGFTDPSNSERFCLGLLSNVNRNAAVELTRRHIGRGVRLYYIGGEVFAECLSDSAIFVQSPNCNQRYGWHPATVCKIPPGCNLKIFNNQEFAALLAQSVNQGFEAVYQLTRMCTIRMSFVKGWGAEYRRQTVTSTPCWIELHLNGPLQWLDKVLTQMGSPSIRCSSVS

binding [1]	binding [2]	Binder
binds		TRIM33 (tripartite motif-containing protein 33) (protein, UniProt Q9UPN9 1-1127) MAENKGGGEAESGGGGSGSAPVTAGAAGPAAQEAEPPLTAVLVEEEEEEGGRAGAEGGAAGPDDGGVAAASSGSAQAASSPAASVGTGVAGGAVSTPAPAPASAPAPGPSAGPPPGPPASLLDTCAVCQQSLQSRREAEPKLLPCLHSFCLRCLPEPERQLSVPIPGGSNGDIQQVGVIRCPVCRQECRQIDLVDNYFVKDTSEAPSSSDEKSEQVCTSCEDNASAVGFCVECGEWLCKTCIEAHQRVKFTKDHLIRKKEDVSESVGASGQRPVFCPVHKQEQLKLFCETCDRLTCRDCQLLEHKEHRYQFLEEAFQNQKGAIENLLAKLLEKKNYVHFAATQVQNRIKEVNETNKRVEQEIKVAIFTLINEINKKGKSLLQQLENVTKERQMKLLQQQNDITGLSRQVKHVMNFTNWAIASGSSTALLYSKRLITFQLRHILKARCDPVPAANGAIRFHCDPTFWAKNVVNLGNLVIESKPAPGYTPNVVVGQVPPGTNHISKTPGQINLAQLRLQHMQQQVYAQKHQQLQQMRMQQPPAPVPTTTTTTQQHPRQAAPQMLQQQPPRLISVQTMQRGNMNCGAFQAHQMRLAQNAARIPGIPRHSGPQYSMMQPHLQRQHSNPGHAGPFPVVSVHNTTINPTSPTTATMANANRGPTSPSVTAIELIPSVTNPENLPSLPDIPPIQLEDAGSSSLDNLLSRYISGSHLPPQPTSTMNPSPGPSALSPGSSGLSNSHTPVRPPSTSSTGSRGSCGSSGRTAEKTSLSFKSDQVKVKQEPGTEDEICSFSGGVKQEKTEDGRRSACMLSSPESSLTPPLSTNLHLESELDALASLENHVKIEPADMNESCKQSGLSSLVNGKSPIRSLMHRSARIGGDGNNKDDDPNEDWCAVCQNGGDLLCCEKCPKVFHLTCHVPTLLSFPSGDWICTFCRDIGKPEVEYDCDNLQHSKKGKTAQGLSPVDQRKCERLLLYLYCHELSIEFQEPVPASIPNYYKIIKKPMDLSTVKKKLQKKHSQHYQIPDDFVADVRLIFKNCERFNEMMKVVQVYADTQEINLKADSEVAQAGKAVALYFEDKLTEIYSDRTFAPLPEFEQEEDDGEVTEDSDEDFIQPRRKRLKSDERPVHIK
	binds	Smad4, Q13485 1-552 (protein) MDNMSITNTPTSNDACLSIVHSLMCHRQGGESETFAKRAIESLVKKLKEKKDELDSLITAITTNGAHPSKCVTIQRTLDGRLQVAGRKGFPHVIYARLWRWPDLHKNELKHVKYCQYAFDLKCDSVCVNPYHYERVVSPGIDLSGLTLQSNAPSSMMVKDEYVHDFEGQPSLSTEGHSIQTIQHPPSNRASTETYSTPALLAPSESNATSTANFPNIPVASTSQPASILGGSHSEGLLQIASGPQPGQQQNGFTGQPATYHHNSTTTWTGSRTAPYTPNLPHHQNGHLQHHPPMPPHPGHYWPVHNELAFQPPISNHPAPEYWCSIAYFEMDVQVGETFKVPSSCPIVTVDGYVDPSGGDRFCLGQLSNVHRTEAIERARLHIGKGVQLECKGEGDVWVRCLSDHAVFVQSYYLDREAGRAPGDAVHKIYPSAYIKVFDLRQCHRQMQQQAATAQAAAAAQAAAVAGNIPGPGSVGGIAPAISLSAAAGIGVDDLRRLCILRMSFVKGWGPDYPRQSIKETPCWIEIHLHRALQLLDEVLHTMPIADPQPLD

Reference: PMC8866318
